Data on 102 compounds can be found in the supplement of paper PMC12578635.

± gives the standard deviation of the averaged measurements. This is one part of the list. Repeats are few or missing, and single values can be far off.

In this test the test system is RAW 264.7 macrophages infected with S. aureus JE2-lux. Kind of test: host macrophage viability (CellTiter-Fluor) relative to DMSO vehicle; higher = more viable host cells. The conditions noted are these: 10 µM; treatment time 4 h; gentamicin 50 µg/ml.
For the compound `Cc1cc(C)nc(SCc2cc(=O)c(OC(=O)COc3ccccc3C)co2)n1`, the host macrophage viability worked out at 111%.

Regarding `CCCCN(C)S(=O)(=O)c1ccc(C(=O)Nc2nc3c(s2)CSc2ccccc2-3)cc1`, the host macrophage viability is 105%.

As for `CCS(=O)(=O)c1cccc(C(=O)Nc2nc3c(F)cc(F)cc3s2)c1`, the host macrophage viability turned out to be 124%.

`O=C(COc1cccc2c1CCN(Cc1ccccc1)C2=O)N1CCCC1`: the host macrophage viability turned out to be 125%.

As to `Cc1csc(N2C(=N)SC(c3ccccc3)C2=O)n1` (configuration not stated), the host macrophage viability worked out at 138%.

As for `c1ccc(-c2csc3ncnc(Sc4ccc5c(c4)OCCO5)c23)cc1`, the host macrophage viability was determined as 115%.

For the compound `O=C(CCC(=O)NC1CCCCC1)Nc1noc2ccccc12`, the host macrophage viability turned out to be 102%.

As for `O=C(Oc1c(CN2CCOCC2)cc(Cl)c2cccnc12)c1ccco1`, the host macrophage viability came to 147%.

For the compound `CC(C)Cn1c(=O)c2sccc2n2c(CCCC(=O)NCc3ccc4c(c3)OCO4)nnc12`, the host macrophage viability was determined as 96.5%.

As to `CC(C)[C@H](Cn1nc(-c2ccc(F)c(F)c2)ccc1=O)NC(=O)c1ccc(=O)[nH]n1`, the host macrophage viability was 126%.

Take `O=[N+]([O-])c1ccc2[nH]c(SCc3cn4cccnc4n3)nc2c1`: the host macrophage viability is 98.3%.

For the compound `CN1C(=O)/C(=N\NC(=O)CCCC(=O)N/N=C2/C(=O)N(C)c3ccccc32)c2ccccc21`, the host macrophage viability amounted to 119%.

Consider `CSc1cccc(NC(=O)CN2N=NC3C(=O)N(c4ccc(F)c(F)c4)C(=O)C32)c1` (configuration not stated), for which the host macrophage viability amounted to 115%.

In the case of `CN(C)CCCNS(=O)(=O)c1ccc2c(c1)NC(=O)C(C)(C)O2`, the host macrophage viability was determined as 92.4%.

On to `O=C(CSc1ncnc2c1oc1ccccc12)Nc1nccs1`, for which the host macrophage viability came out at 103%.

Consider `O=C(CSc1nnc2[nH]c(=O)c(-c3ccc(Cl)cc3)nn12)c1ccc([N+](=O)[O-])cc1`, for which the host macrophage viability amounted to 115%.

Take `CC(=O)Nc1ccc(S(=O)(=O)NCCc2cn3ccc(C)cc3n2)cc1`: the host macrophage viability was 127%.

For `CCC(=O)Nc1ccc(NC(=O)c2cc(OC)c(OC)c(OC)c2)cn1`, the host macrophage viability came out at 107%.

Consider `COc1cccc(NC(=O)N2C3CCCC2CC(NC(C)=O)C3)c1` (configuration not stated), for which the host macrophage viability is 122%.

`COc1ccc(N2C(=O)CC(NNC(=O)c3ccccc3)C2=O)cc1` (configuration not stated): the host macrophage viability is 136%.

With `CCn1c(=O)c(-c2noc(CCC(=O)Nc3ccc(OC)cc3)n2)nn(-c2ccc(C)cc2)c1=O`, the host macrophage viability came to 113%.

In the case of `COc1ccc(Cc2cnc(NC(=O)/C=C/c3ccc([N+](=O)[O-])cc3)s2)cc1`, the host macrophage viability amounted to 119 ± 14%.

With `Nc1c(C(=O)c2ccccc2)sc2nc3c(c(-c4ccco4)c12)CC/C3=C\c1ccco1`, the host macrophage viability was 109%.

As for `CCOCCCn1c(SCC(=O)Nc2ccc(C)cc2C)nc2c(oc3ccccc32)c1=O`, the host macrophage viability was 108%.

For `CCOC(=O)c1sc(NC(=O)c2cc3c(ccc4ccccc43)oc2=O)cc1C`, the host macrophage viability worked out at 112 ± 1.8%.

For `C=CCOc1ccccc1NC(=O)c1nnn(-c2ccccc2)c1C`, the host macrophage viability was found to be 96.2%.

Consider `CCOc1ccccc1CNC(=O)c1sc(-n2cccc2)nc1C`, for which the host macrophage viability was found to be 119%.

For the compound `COc1cccc(C(=O)Nc2c(-n3cnnc3)nn(C)c2C)c1`, the host macrophage viability was 94.9%.

On to `COc1cc(OC)cc(C(=O)Nc2cc3c4c(c2)CCC(=O)N4CCC3)c1`, for which the host macrophage viability was found to be 114%.

With `Cc1ccc2[nH]c3nc(SCC(=O)Nc4ccc5c(c4)OCO5)nnc3c2c1`, the host macrophage viability was determined as 96.5%.

For `CCOC(=O)CSc1nc(C)nc2c1c(=O)n(C)c(=O)n2C`, the host macrophage viability came out at 107 ± 24%.

With `CC1CCc2nc(NC(=S)NC(=O)c3ccccc3)sc2C1` (configuration not stated), the host macrophage viability stood at 116%.

With `O=C(NNC1=C/C(=N/S(=O)(=O)c2ccccc2)c2ccccc2C1=O)c1cccc([N+](=O)[O-])c1`, the host macrophage viability worked out at 90.3%.

On to `CC(=O)N1CCc2nc(NC(=O)c3cccs3)sc2C1`, for which the host macrophage viability is 113%.

Turning to `Cc1c(C)n2c(SCC(=O)NC3CCCCC3)nnc2[nH]c1=O`, the host macrophage viability stood at 99.1%.

Turning to `CC(=O)N1CCc2c(sc(NC(=O)c3cc(C)ccc3C)c2C#N)C1`, the host macrophage viability was 125%.

For the compound `CSc1cccc(NC(=O)CSc2nc3c(oc4ccccc43)c(=O)n2Cc2ccco2)c1`, the host macrophage viability was 122%.

`Cc1ccc(Cn2c(SCc3cc(=O)n4cc(Cl)ccc4n3)nc3ccsc3c2=O)cc1`: the host macrophage viability worked out at 136%.

As for `O=C(O)c1cccc(Cn2c(Cl)c(/C=N/NC(=O)c3ccncc3)sc2=O)c1`, the host macrophage viability turned out to be 123%.

`CC(C)c1nc2ccccc2c2nnc(SCC(=O)Nc3ccc(F)cc3)n12`: the host macrophage viability was 105%.

As for `Cc1cccc(NC(=O)NC2CC(=O)N(c3ccc(F)cc3)C2)n1` (configuration not stated), the host macrophage viability was 119%.

With `COCCCNC(=O)Cn1c(C)cc(=O)n2nc(-c3ccccc3Cl)nc12`, the host macrophage viability is 119%.

Regarding `O=C(Nc1ccccc1F)C(=O)c1c[nH]c2ccccc12`, the host macrophage viability was 114.2 ± 0.95%.

Take `O=C(Nc1ccon1)C1CCN(S(=O)(=O)c2cccs2)CC1`: the host macrophage viability stood at 111%.

With `O=C(Nc1ccc2c(c1)CCC2)C1CCN(C(=O)NC2CCCCC2)CC1`, the host macrophage viability amounted to 120%.

With `NS(=O)(=O)c1ccc(CNC(=O)c2cccn3c(-c4ccc(F)cc4)nnc23)cc1`, the host macrophage viability turned out to be 107%.

Regarding `CCCc1cc(C(=O)N2CCCC2c2ccc(C)cc2)no1` (configuration not stated), the host macrophage viability was found to be 115%.

On to `CCOC(=O)N1CCN(C(=O)CSCC(=O)/N=c2\sc3cc(OC)ccc3n2C)CC1`, for which the host macrophage viability stood at 130%.

On to `Cc1ccc2c(Cl)c(C(=O)Nc3cc(-c4ccc(F)cc4)no3)sc2c1`, for which the host macrophage viability came out at 112%.

For `O=C(O)c1cccc(N2C(=O)CC(Nc3ccc(F)cc3)C2=O)c1` (configuration not stated), the host macrophage viability turned out to be 129%.

As for `COc1ccc(-c2cc(C(=O)Nc3cc(C)n(C)n3)ccc2-n2ccnc2)cc1`, the host macrophage viability was 107%.

In the case of `COc1ccc2oc(=O)c(C(=O)NC3=C(C#N)CCC3)cc2c1`, the host macrophage viability was 102%.

With `Oc1nc(SCc2cc3c(cc2Cl)OCO3)nc2[nH]cnc12`, the host macrophage viability was 116%.

As to `CCS(=O)(=O)c1ccccc1C(=O)N1CCN(c2nc3ccc([N+](=O)[O-])cc3s2)CC1`, the host macrophage viability is 119%.

Consider `CCc1ccc(NC(=O)c2cnn3c(=O)cc(C)[nH]c23)cc1`, for which the host macrophage viability worked out at 103%.

With `O=C(CSc1ncnc2ccccc12)Nc1cccc(C(F)(F)F)c1`, the host macrophage viability came to 112 ± 9.4%.

With `CCOC(=O)c1c(NC(=O)C(C)Sc2nc(=O)n3cc(C)ccc3n2)sc2c1CCCCC2` (configuration not stated), the host macrophage viability worked out at 129%.

For the compound `C=CCN1C(=O)c2oc3ccccc3c(=O)c2C1c1ccc(O)c(OC)c1` (configuration not stated), the host macrophage viability turned out to be 125%.

Consider `Cc1ccc2c(c1)/C(=N\NC(=S)Nc1cccc(O)c1)C(=O)N2`, for which the host macrophage viability amounted to 81.1%.

For the compound `CC1C(c2ccc(F)cc2)=NOC1C(=O)NC(c1ccccc1)c1ccnn1C` (configuration not stated), the host macrophage viability was 106%.

`Cc1ccc(S(=O)(=O)N(C)c2cncc(C(=O)NC(C)C)c2)cc1`: the host macrophage viability was 123%.

Consider `Cc1nc2ccccc2n1C(=O)c1ccccc1C(=O)O`, for which the host macrophage viability amounted to 112 ± 15%.

`CCOCCn1/c(=N\C(=O)c2cccc(S(C)(=O)=O)c2)sc2cccc(F)c21`: the host macrophage viability came out at 110%.

For `Cc1nn(C)c(C)c1S(=O)(=O)N1CCc2c(c(C(=O)N3CCOCC3)nn2C)C1`, the host macrophage viability amounted to 104%.

For `COc1cccc(-c2noc(NC3CCCCC3)n2)c1`, the host macrophage viability came to 127%.

Consider `Cc1cc(C)c2cc(CNCC3CCCO3)c3nn(C)c(=O)n3c2c1` (configuration not stated), for which the host macrophage viability came to 136%.

For the compound `CCCCN(C)S(=O)(=O)c1ccc(C(=O)Nc2ccc3ccccc3c2)cc1`, the host macrophage viability turned out to be 98.3%.

With `Cc1ccc(S(=O)(=O)Nc2ccccc2C(=O)Nc2sccc2C(N)=O)cc1`, the host macrophage viability was 149%.

Regarding `Cc1ccc2nc3c(cc(S(=O)(=O)c4ccc(Cl)cc4)c(=N)n3C3CCCC3)c(=O)n2c1`, the host macrophage viability amounted to 118%.

In the case of `CC(=O)Nc1cc(-c2ccccc2)nn1-c1nc(-c2ccccc2)cs1`, the host macrophage viability is 107%.

`Cc1ccc2cc(CCNC(=O)COc3ccc4ccccc4c3)c(=O)[nH]c2c1`: the host macrophage viability amounted to 129%.

For `O=C(Cc1ccc(F)cc1)Nc1nnc(-c2ccccc2)[nH]1`, the host macrophage viability stood at 115%.

Take `C=CCNC(=O)Cn1c(C)c(Cc2ccccc2)c(=O)n2nc(-c3ccc(C)cc3)nc12`: the host macrophage viability is 111%.

Consider `O=C(c1ccccc1F)N1CCc2cc(-c3csc(-c4cccnc4)n3)ccc21`, for which the host macrophage viability turned out to be 117%.

Turning to `COc1cc2ccccc2cc1C(=O)Nc1nnc(-c2ccncc2)o1`, the host macrophage viability was 110%.

With `CCOC(=O)c1c(NC(=O)C2CC(=O)NN2Cc2ccccc2)sc2c1CCC2` (configuration not stated), the host macrophage viability worked out at 115%.

In the case of `CCOC(=O)N1CCN(C(=O)CSc2ncnc3ccccc23)CC1`, the host macrophage viability was 113 ± 7.4%.

On to `O=C(NCC(c1cccs1)S(=O)(=O)c1ccccc1)Oc1ccccc1` (configuration not stated), for which the host macrophage viability is 123%.

Turning to `O=C(O)CC1C(=O)NCCN1Cc1cccc(C(F)(F)F)c1` (configuration not stated), the host macrophage viability was found to be 132%.

For the compound `COC(=O)c1c(NC(=O)c2ccc(C#N)cc2)sc2c1CC(C)(C)NC2(C)C`, the host macrophage viability stood at 146%.

Turning to `Cc1nc2ccc3nc(NC(=O)c4sc5ccccc5c4Cl)sc3c2s1`, the host macrophage viability was 144%.

Turning to `Cc1ccc(-n2c(C)cn3c4c(=O)n(CC(N)=O)c(=O)n(C)c4nc23)cc1`, the host macrophage viability came to 118%.

For `O=c1[nH]c(NNC(=S)Nc2ccccc2)nc2sc3c(c12)CCCC3`, the host macrophage viability was 104%.

On to `O=C(O)c1ccc2c(c1)C(=O)N(Cc1ccc3c(c1)OCO3)C2=O`, for which the host macrophage viability was 129%.

Regarding `Cc1ccc(-c2nnn3c2[nH]c(=O)c2cc(Cl)ccc23)cc1`, the host macrophage viability turned out to be 116%.

On to `O=C(NCCCc1ccccc1)c1c(O)nc2sccn2c1=O`, for which the host macrophage viability was determined as 102%.

For the compound `Nc1c(C(=O)NC2CCCCC2)sc2nc3c(cc12)C(=O)CCC3`, the host macrophage viability was found to be 111%.

With `CCOC(=O)c1ccc2nc(NC(=O)Cc3cccc4ccccc34)sc2c1`, the host macrophage viability was 118%.

Take `Cn1c(=O)c2cc(C(=O)Nc3nccs3)sc2n(C)c1=O`: the host macrophage viability came out at 93.2%.

In the case of `CC1=C(C(=O)Nc2ccc(Br)cc2)C(c2ccc(C(C)C)cc2)NC(=O)N1` (configuration not stated), the host macrophage viability worked out at 101%.

Take `COc1ccc(C(=O)CSc2nc(COc3ccccc3)nc3ccccc23)cc1`: the host macrophage viability is 99.7%.

For the compound `Cc1cc(NC(=O)CSC2=NS(=O)(=O)c3ccccc3N2)[nH]n1`, the host macrophage viability came out at 118%.

As for `COc1cc2ncc(C(=O)NCc3cccnc3)c(O)c2cc1OC`, the host macrophage viability was found to be 109%.

On to `CN1C(=O)c2cccc(NC(=O)c3ccc(S(=O)(=O)N(C)CC4CCCO4)cc3)c2C1=O` (configuration not stated), for which the host macrophage viability is 130%.

As to `COc1ccc(C(=O)Nc2nc3c(cc4c5c(cccc53)CC4)s2)c(OC)c1`, the host macrophage viability was determined as 111 ± 9.1%.

In the case of `O=C(NC1CCCCC1)C(c1ccc2ncccc2c1)N(C(=O)c1cccs1)c1ccc(F)cc1` (configuration not stated), the host macrophage viability stood at 123%.

Consider `O=C(O)c1cccc(S(=O)(=O)/N=C2/C=C(NS(=O)(=O)c3ccccc3)C(=O)c3ccccc32)c1`, for which the host macrophage viability was found to be 80.7%.

In the case of `COc1ccc(O)c(NS(=O)(=O)c2ccc3c(c2)NC(=O)CO3)c1`, the host macrophage viability was found to be 99.7%.

With `Cc1ccc(NC(=O)CC2C(=O)Nc3ccccc3N2C(=O)c2ccc(Br)cc2)cc1C` (configuration not stated), the host macrophage viability was 119%.

In the case of `CC[C@@H](Cn1ncc2ccccc2c1=O)NC(=O)c1ccc2c(c1)n(C)c(=O)n2C`, the host macrophage viability came to 121%.

Regarding `O=C(CSc1ncnc2c1oc1ccccc12)NCCc1ccccc1`, the host macrophage viability amounted to 124%.

As for `Cc1cc(C)c(NC(=O)CS(=O)CC(=O)NC2CCS(=O)(=O)C2)c(C)c1` (configuration not stated), the host macrophage viability was 113%.
